Assay results reported in US10106572B1, “Supramolecular hacky sacks (SHS), method of synthesis and applications thereof” (University of Puerto Rico, priority 2014, dated 2018).
At least one compound was matched to its structure with a doubt left.

Assay: Differential scanning calorimetry (DSC) of SGQ assemblies
Format: physicochemical
Settings: ImAGhD2OH, pH 5.0
Description: The ΔGcal and ΔScal values shown in this table correspond to those calculated using the values of Tt, Tm, and ΔHcal from the instrument. All ΔG values were calculated at a temperature of 20° C.
Differential Scanning calorimetry (DSC) analyses were performed on a VP-DSC Micro-Calorimeter from MicroCal and Origin (v.7) was used for data processing. For the experiment, the buffer was first degasified and the experiment was carried out as a blank in both sample and reference cell. Then, the sample was degasified, and the blank buffer in the sample cell to be substituted with sample was removed. Afterwards, the experiment was performed with a temperature ramp of 0° C.-80° C. for 4 cycles.

With Cn1ccnc1/C=C/C(=O)c1cccc(-c2nc3c(=O)[nH]c(N)nc3n2[C@H]2C[C@H](OC(=O)CCCCCn3cc(COC(=O)C(C)(CO)CO)nn3)[C@@H](COC(=O)CCCCCn3cc(COC(=O)C(C)(CO)CO)nn3)O2)c1 [ImAGhD2OH] the ΔHTt was 46 13 kcal/mol.
